Reference: article doi:10.1101/2022.09.26.509508
No constants are given. Whether binding was seen depends on the method and setting. Some results given as binding are weak or reduced against the parent protein; the word gives no strength. Tags and fused reporters may be left off the sequences shown.

Legend:
Test in all cases: two-hybrid
[1] = biological target: T1, NHR-23^ROR (two-hybrid fusion) (C. elegans) (UniProt P41828)
T1 sequence: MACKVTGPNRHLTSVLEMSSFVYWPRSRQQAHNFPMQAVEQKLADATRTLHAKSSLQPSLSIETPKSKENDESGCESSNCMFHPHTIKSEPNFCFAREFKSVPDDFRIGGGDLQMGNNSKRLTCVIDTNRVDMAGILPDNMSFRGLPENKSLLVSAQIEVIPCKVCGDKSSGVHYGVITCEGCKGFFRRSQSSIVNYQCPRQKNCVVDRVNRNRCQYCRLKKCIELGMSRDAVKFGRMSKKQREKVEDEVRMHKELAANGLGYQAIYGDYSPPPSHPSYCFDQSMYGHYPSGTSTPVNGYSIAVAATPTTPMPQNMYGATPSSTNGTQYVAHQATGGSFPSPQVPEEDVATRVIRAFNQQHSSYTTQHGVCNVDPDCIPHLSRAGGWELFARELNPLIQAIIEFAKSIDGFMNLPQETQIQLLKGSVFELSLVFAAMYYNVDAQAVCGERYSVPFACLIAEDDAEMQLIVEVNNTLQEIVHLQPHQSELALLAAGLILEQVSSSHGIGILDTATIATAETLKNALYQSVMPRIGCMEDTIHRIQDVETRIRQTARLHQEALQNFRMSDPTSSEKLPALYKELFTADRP

[2] = biological target: T2, LIN-42b (LIN-42^Period isoform, two-hybrid bait) (C. elegans), Q65ZG8; conditions: remark: other sources report otherwise
T2 chain: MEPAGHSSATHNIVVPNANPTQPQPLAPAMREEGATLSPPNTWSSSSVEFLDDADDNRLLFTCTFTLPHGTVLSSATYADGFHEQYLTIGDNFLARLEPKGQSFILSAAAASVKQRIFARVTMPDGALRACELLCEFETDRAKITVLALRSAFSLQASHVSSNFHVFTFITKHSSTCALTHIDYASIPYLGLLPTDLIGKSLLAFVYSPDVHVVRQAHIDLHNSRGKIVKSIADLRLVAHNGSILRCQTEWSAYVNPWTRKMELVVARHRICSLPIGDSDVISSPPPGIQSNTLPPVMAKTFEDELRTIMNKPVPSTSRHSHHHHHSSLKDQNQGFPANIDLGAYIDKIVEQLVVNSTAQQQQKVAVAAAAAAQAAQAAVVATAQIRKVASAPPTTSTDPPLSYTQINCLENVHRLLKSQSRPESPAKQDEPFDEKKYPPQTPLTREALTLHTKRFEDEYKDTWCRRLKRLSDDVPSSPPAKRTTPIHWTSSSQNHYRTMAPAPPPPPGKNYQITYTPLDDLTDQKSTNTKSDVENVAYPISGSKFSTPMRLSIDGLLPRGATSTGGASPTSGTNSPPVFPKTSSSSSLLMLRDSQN

[3] = biological target: T3, LIN-42b (LIN-42^Period isoform, two-hybrid bait) (C. elegans) (UniProt Q65ZG8)
T3 sequence: T2 chain

B1: NHR-85^Rev-Erb (two-hybrid fusion) (protein, UniProt Q9XUK7 1-514)
chain: MDLSTSGSLPCHLPLSLLTNLQTPPIDTSFSSPPATSSSSLLSPSPSSAFRPVVPKSLMNPQPAMDTFYMSAIQSLVVSTTNDDQYSEHGALEGSKSLAKDENASTSAGTILCQVCSDKASGFHYGVFACEGCKGFFRRSIQQKITYRACTRAEDCLILRNNRNRCQCCRLKKCLAVGMSRDAVRFGRVPKREKARMFEEMQKTNVQSQRDQIAIQYENLTEVMHKINQAFGTLQATLEKCTGPIYTDRCPITSNFIVIPLKAAIDFANSIPAFLSITQTQRVHLLQNSVFDVMLLASASASTSQHFPPGGLTYDQSSANPIIPQAIQSISARIRQLPPQTVPILTAIAVCQADLLPESQQPMLLAERLWCVLGKLGGIQSLATAPSLLADVRTLRQWHSDRLRQMSQISQHFSQNLLIAPVAAAAPVLLPPAFLSPPASATSTSSSSVKSEFIERHPSIASLLERPRRISSSGAQEPLNLSLPHVRHQVKRDVDSDEQLEEMKVSPVPTTLSE
Q: For B1, which binding [1] is on record?
A: Its binding is “binds”.

B2: NHR-85^Rev-Erb (two-hybrid fusion), Q9XUK7 1-514 (protein)
chain: B1 chain
Q: With B2 as the binder, how does the binding [2] read?
A: The binding was “binds”.

B3: NHR-23^ROR (two-hybrid fusion) (protein, UniProt P41828 1-588)
chain: T1 sequence
Q: With B3 as the binder, how does the binding [3] read?
A: Its binding is “no binding”.
